Experimental data: article PMC3499586, “Heterotrimeric G-protein Signaling Is Critical to Pathogenic Processes in Entamoeba histolytica” (PLoS Pathogens, 2012)
These are yes or no findings as the source states them, for the method shown. Some binding calls cover weakened binding; strength is not graded here. Where a sequence is shown, tags or fusion partners need not be part of it.

Sequences of proteins named here, by UniProt entry; tags and fusion partners are left off.
UniProt C4M483: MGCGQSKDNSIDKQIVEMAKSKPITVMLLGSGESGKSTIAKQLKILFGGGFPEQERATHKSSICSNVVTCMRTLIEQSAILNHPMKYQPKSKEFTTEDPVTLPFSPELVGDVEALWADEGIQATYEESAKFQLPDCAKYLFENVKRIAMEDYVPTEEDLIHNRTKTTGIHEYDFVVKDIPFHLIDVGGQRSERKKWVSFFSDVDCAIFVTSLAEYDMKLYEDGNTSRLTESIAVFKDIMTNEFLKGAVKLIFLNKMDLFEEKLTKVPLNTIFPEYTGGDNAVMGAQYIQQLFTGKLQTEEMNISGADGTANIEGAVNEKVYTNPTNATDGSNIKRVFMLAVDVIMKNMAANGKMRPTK

Target: T1, EhRGS-RhoGEF (E. histolytica) (UniProt C4LYV4)
T1 sequence: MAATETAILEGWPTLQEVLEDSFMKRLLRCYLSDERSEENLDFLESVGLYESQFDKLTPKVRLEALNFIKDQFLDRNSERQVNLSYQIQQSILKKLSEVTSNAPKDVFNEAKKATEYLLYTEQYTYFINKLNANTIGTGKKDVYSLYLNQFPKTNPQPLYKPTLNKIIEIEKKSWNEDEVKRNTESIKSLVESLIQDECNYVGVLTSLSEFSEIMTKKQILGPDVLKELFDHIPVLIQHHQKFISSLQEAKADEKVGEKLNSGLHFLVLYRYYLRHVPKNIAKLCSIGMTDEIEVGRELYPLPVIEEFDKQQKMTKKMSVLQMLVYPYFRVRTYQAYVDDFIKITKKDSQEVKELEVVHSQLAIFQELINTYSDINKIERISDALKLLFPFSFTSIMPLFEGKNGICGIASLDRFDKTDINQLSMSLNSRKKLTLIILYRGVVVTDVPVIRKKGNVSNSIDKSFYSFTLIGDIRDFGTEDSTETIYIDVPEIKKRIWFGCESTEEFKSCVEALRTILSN
Assay: SPR; both purified

## EhGα1 (recombinant, purified from E. coli) (from UniProt C4M483 1-358)
  binding: binds
